Assay results reported in US20240301023A1 (priority 2020, published 2024).
At least one structure is not confirmed: it was looked up by name or label, or the drawing left a doubt. Square brackets hold non-standard residues; d marks the D form. Peptide text beside a SMILES is read from it. Phe(4-NO2) = N[C@@H](Cc1ccc([N+](=O)[O-])cc1)C(=O)O; NMeR = CN[C@@H](CCCNC(=N)N)C(=O)O; Sar = CNCC(=O)O

Experiments:
Stability in rat plasma = format: in vitro ADME; settings: 37° C., 100 μM peptide
Description: Stability in plasma was assessed in rat plasma. Plasma was collected in-house from adult mixed-gender Wistar rats, prepared using 2% EDTA as per standard practice. Peptides were added to the rat plasma samples at 37° C. in a water bath with final concentrations of 100 μM (1:9 peptide in water:plasma). The assay was then carried out in the same manner as the assay in bovine trypsin.

[1] = biological target: T1, bovine pancreatic trypsin (Bos taurus, UniProt P00760); test: Stability in bovine trypsin; format: in vitro ADME; settings: bovine pancreatic trypsin 2.5 μg/mL, NH4HCO3 buffer pH 8-8.5, 37° C., 100 μM peptide
T1 construct: from tissue; host or cells: bovine pancreas
T1 sequence (P00760 24-246): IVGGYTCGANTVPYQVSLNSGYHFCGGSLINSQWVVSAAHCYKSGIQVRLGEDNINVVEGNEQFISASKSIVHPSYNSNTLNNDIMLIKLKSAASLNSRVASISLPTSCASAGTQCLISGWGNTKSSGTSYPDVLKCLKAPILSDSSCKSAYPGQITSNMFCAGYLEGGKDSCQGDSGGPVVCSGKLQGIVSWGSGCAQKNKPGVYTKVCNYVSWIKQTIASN
Description: The stability of the peptides was analysed in typsin, plasma and water. Stability of linear peptides is generally low due to rapid degradation by endogenous peptidases and proteases. While stability in bodily fluids is important, absolute stability may not be prudent or desirable due to potential build-up in vivo leading to adverse side effects, and/or hazards to the environment and recirculation of exceptionally stable compounds in waterways. Thus, compounds that are extremely stable in either plasma or typsin are not generally considered “drug-like”.
Stability in bovine trypsin was analysed for SEQ ID Nos. 2 to 7 and 11 to 17. Peptides were added to trypsin solution (bovine pancreatic trypsin 2.5 μg/mL in NH4HCO3 buffer, pH approximately 8-8.5, 37° C.) in a water bath with final concentrations of 100 μM peptide. A 50 μL sample was taken immediately and precipitated in 150 μL of cold acetonitrile (9:1 acetonitrile:water) This sample became the baseline, or t=0 min sample. The trypsin peptide mixture was immediately returned to the water bath and subsequent 50 μL samples were taken at 5, 10, 15, 30, 60 and 120 min. At each time point, the 50 μL sample was collected and immediately added to cold acetonitrile (ACN). Each sample was vortexed for 30 sec and then centrifuged at room temperature (RT) (13K rpm, 5 min). […]

| Structure (SMILES) | Half Life Plasma (Stability in rat plasma) [min] | Half Life Trypsin [1] [min] |
| --- | --- | --- |
| CC(C)C[C@H](NC(=O)[C@H](Cc1ccc([N+](=O)[O-])cc1)NC(=O)CN(C)C(=O)[C@@H](N)Cc1ccc(O)cc1)C(=O)N(C)[C@@H](CCCNC(=N)N)C(=O)N[C@H](CCCNC(=N)N)C(N)=O [SEQ ID NO. 15, NH2-Tyr-Sar-(4-NO2)Phe-Leu-NMA-DArg-NH2] (H-Y[Sar][Phe(4-NO2)]L[NMeR][dR]-NH2) | 168.2 |  |
| CC(C)C[C@H](NC(=O)[C@H](Cc1ccccc1)NC(=O)CNC(=O)CNC(=O)[C@@H](N)Cc1ccc(O)cc1)C(=O)N[C@@H](CCCNC(=N)N)C(=O)N[C@@H](CCCNC(=N)N)C(=O)O [SEQ ID NO. 38, Tyr-Gly-Gly-Phe-Leu-Arg-Arg, reference compound] | 8.1 | <1.0 |
